The results in this text go back to PubChem BioAssay AID328 (DTP/NCI, 2004).

The list is a part of this screen's results and no random one: it is rich in T/C values a quarter to a half above the control, in often repeated tests (any T/C) and in doses without a T/C. Other doses and runs of a compound stand elsewhere. T/C: endpoint of the treated group in % of that of the vehicle group. Some doses have a count of surviving animals in place of a T/C: the source holds a T/C of zero for them, seemingly a mark for toxic or unscored doses. Some doses without a T/C left all or most animals alive at the check, yet need not have been tolerated: survival well below the control is almost never listed, so the zero probably covers shortened survival too. Counts of survivors are from the toxicity check (mostly the fifth day) where no day follows; animals may have died later. Schedules are NCI's codes, taken here to give the interval after Q, in days (D) or hours (H), and the number of doses after X. Some entries were tested several times; their values stand side by side, smallest first. Where survival is the endpoint, this PubChem deposit counts one and a half times the control or more as active, and values a quarter to a half above the control carry no call in these data; other NCI protocols may use other cut-offs. Some T/C values carry the count of animals alive at the toxicity check (mostly the fifth day); without a count, all were alive then.

The test system of this assay is BDF1 mice, P388 leukemia ip, median survival T/C. The assay can be described thus: NCI In Vivo Anticancer Drug Screen. Data for tumor model P388 Leukemia (intraperitoneal) in B6D2F1 (BDF1) mice. As to conditions: T/C endpoint: median survival time, higher T/C = longer survival. In short, it runs like this:
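Transplantable tumour in mice; compound vs vehicle dosing; survival scored; ratio of treated to control reported.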

[1] abbreviates: dose: 100.0 mg/kg/injection, schedule: Q01DX009 (ip), vehicle: saline with Tween-80.
[2] abbreviates: dose: 200.0 mg/kg/injection, schedule: Q01DX009 (ip), vehicle: saline with Tween-80.
[3] abbreviates: dose: 100.0 mg/kg/injection, schedule: Q01DX009 (ip), vehicle: saline.
The mark [4] stands for this setting: dose: 200.0 mg/kg/injection, schedule: Q04DX003 (ip), vehicle: saline with Tween-80.
The mark [5] stands for this setting: dose: 400.0 mg/kg/injection, schedule: Q04DX003 (ip), vehicle: saline with Tween-80.
Setting [6] is: dose: 400.0 mg/kg/injection, schedule: Q01DX009 (ip), vehicle: saline with Tween-80.
Setting [7] is: dose: 50.0 mg/kg/injection, schedule: Q01DX009 (ip), vehicle: saline.
Where [8] appears, read: dose: 400.0 mg/kg/injection, schedule: Q01DX009 (ip), vehicle: Klucel (hydroxypropylcellulose) (HPC).
The mark [9] stands for this setting: dose: 50.0 mg/kg/injection, schedule: Q01DX009 (ip), vehicle: saline with Tween-80.

As to `COc1cc2ccc3c(c2cc1OC)C=[N+](C)CC3`, the T/C under setting [1] is 133 % of control. The survivor count under setting [2] is 4 of 6.

Consider `CC[n+]1ccc2cc(OC)c(OC)cc2c1Cc1ccc(OC)c(OC)c1`, for which the survivor count is recorded as 0 of 6 under setting [3] and 0 of 6 (dose: 200.0 mg/kg/injection, schedule: Q04DX003 (ip), vehicle: saline).

In the case of `Cc1cc(C)c(S(=O)(=O)O)cc1C`, the survivor count under setting [4] is on record as 3 of 6.

In the case of `CN1C(=O)Cc2[nH]ccc2C1=O`, the T/C (dose: 6.25 mg/kg/injection, schedule: Q04DX003 (ip), vehicle: saline with Tween-80) is 127 % of control. In addition, the survivor count (dose: 25.0 mg/kg/injection, schedule: Q04DX003 (ip), vehicle: saline with Tween-80) is reported as 2 of 6.

For `Cc1ccc(Nc2ccc(Nc3ccc(C)cc3)c3c2C(=O)c2ccccc2C3=O)cc1`, under setting [5], the survivor count is 6 of 6.

For `CC(C)(N)CCC(C)(C)NCCCN`, the survivor count (dose: 300.0 mg/kg/injection, schedule: Q01DX009 (ip), vehicle: water) is given as 6 of 6.

With `CCOC(=O)CC(=O)c1ccc(C)cc1`, under setting [6], the survivor count was 3 of 6.

Consider `OC1c2cc(Cl)ccc2-c2c(Cl)cc(Cl)cc21` (stereo not drawn), for which the survivor count under setting [5] is 3 of 6.

With `Nc1ccccc1.[C-]#[O+].[C-]#[O+].[C-]#[O+].[C-]#[O+].[C-]#[O+].[Cr]`, the survivor count is given as 0 of 6 (dose: 10.0 mg/kg/injection, schedule: Q01DX009 (ip), vehicle: saline) and 0 of 6 (dose: 20.0 mg/kg/injection, schedule: Q01DX009 (ip), vehicle: saline).

On to `COc1ccc(CC2=NCCc3cc(OC)c(OC)cc32)cc1OC`, for which the T/C under setting [7] is 146 % of control.

Consider `O=[N+]([O-])c1cc2c(c([N+](=O)[O-])c1)OCOC2`, for which the survivor count by setting is: under setting [2], 5 of 6; under setting [5], 5 of 6.

In the case of `CC1(C)OC(COCCOCCOCCCO)C(COCCOCCOCCCO)O1` (stereo not drawn), where the note is “dose: 400.0 mg/kg/injection, schedule: Q01DX001 (ip), vehicle: saline”, the T/C was 127 % of control.

With `CC(=O)N(C)C`, the survivor count (dose: 5400.0 mg/kg/injection, schedule: Q01DX010 (ip), vehicle: saline) is 0 of 6.

Take `O=C(O)c1ccccc1Nc1ccc(Br)cc1`: for the setting “dose: 200.0 mg/kg/injection, schedule: Q01DX001 (ip), vehicle: saline with Tween-80”, the survivor count is on record as 2 of 6.

For `NC(Cn1ccc(=O)c(O)c1)C(=O)O` (stereo not drawn), for the setting “dose: 800.0 mg/kg/injection, schedule: Q01DX009 (ip), vehicle: saline”, the T/C is 133 % of control [5 of 6 alive]. In addition, the survivor count is, setting by setting: (dose: 1200.0 mg/kg/injection, schedule: Q01DX009 (ip), vehicle: saline) 1 of 6; (dose: 1600.0 mg/kg/injection, schedule: Q01DX009 (ip), vehicle: saline) 0 of 6.

In the case of `O=[N+]([O-])c1ccccc1O`, the survivor count under setting [1] is 6 of 6, the survivor count under setting [2] is recorded as 6 of 6 and the survivor count under setting [6] is recorded as 4 of 6.

Regarding `CCOC(=O)c1cc(N)c(N2CCCC2)cc1Cl`, the T/C is 126 % of control (dose: 90.0 mg/kg/injection, schedule: Q04DX003 (ip), vehicle: saline with Tween-80) and 127 % of control under setting [4].

For the molecule `CCCn1cnc2c(SCc3ccccc3Cl)nc(N)nc21`, the survivor count under setting [8] is 6 of 6.

As for `NCCNCC[OH2+].NCCNCC[OH2+].O=S(=O)([O-])[O-].[Cu+2]`, the survivor count under setting [7] is reported as 0 of 6; the survivor count under setting [3] is given as 0 of 6; the survivor count (dose: 200.0 mg/kg/injection, schedule: Q01DX009 (ip), vehicle: saline) is given as 0 of 6.

As for `NC(N)=Nc1ccc(C(=O)Oc2ccc(OC(=O)c3cccc(N=C(N)N)c3)cc2)cc1`, the survivor count is, setting by setting: (dose: 100.0 mg/kg/injection, schedule: Q04DX003 (ip), vehicle: water) 6 of 6; (dose: 200.0 mg/kg/injection, schedule: Q04DX003 (ip), vehicle: water) 6 of 6; (dose: 400.0 mg/kg/injection, schedule: Q04DX003 (ip), vehicle: water) 5 of 6.

Regarding `C=CCCCC[P+](c1ccccc1)(c1ccccc1)c1ccccc1`, the T/C (dose: 6.0 mg/kg/injection, schedule: Q01DX010 (ip), vehicle: saline) was 140 and 140 % of control [4 of 6 alive]; the T/C (dose: 12.0 mg/kg/injection, schedule: Q01DX010 (ip), vehicle: saline) is 131 % of control. In addition, the survivor count is on record as 3 of 6 (dose: 24.0 mg/kg/injection, schedule: Q01DX010 (ip), vehicle: saline) and 0 of 6 (dose: 48.0 mg/kg/injection, schedule: Q01DX010 (ip), vehicle: saline).

Turning to `NC(N)=NC(N)=Nc1ccc(Cl)c(Cl)c1`, the survivor count by setting is: under setting [1], 6 of 6; under setting [2], 3 of 6.

Take `Nc1cc(Cl)ncn1`: the survivor count (dose: 100.0 mg/kg/injection, schedule: Q01DX009 (ip), vehicle: Klucel (hydroxypropylcellulose) (HPC)) is on record as 5 of 6 and the survivor count (dose: 265.0 mg/kg/injection, schedule: Q01DX009 (ip), vehicle: saline) is on record as 6 of 6. Also, the T/C under setting [8] is 129 % of control.

For `O=[N+]([O-])OCc1c(Cl)nc(Cl)c(Cl)c1Cl`, the survivor count under setting [1] is 4 of 6.

Take `CC[C@]1(O)CC(OC2CC(N(C)C)C(O)C(C)O2)c2c(cc3c(c2O)C(=O)c2c(O)cccc2C3=O)[C@@H]1C(=O)OC` (stereo partly drawn): the survivor count (dose: 5.0 mg/kg/injection, schedule: Q01DX001 (ip), vehicle: saline) is given as 3 of 6.

As to `COC(=O)[C@H]1[C@H]2C[C@@H]3c4[nH]c5cc(OC)ccc5c4CCN3C[C@H]2C[C@@H](OC(=O)c2cc(OC)c(OC)c(OC)c2)[C@@H]1OC`, the survivor count by setting is: (dose: 0.75 mg/kg/injection, schedule: Q01DX009 (ip), vehicle: saline with Tween-80) 6 of 6; (dose: 1.5 mg/kg/injection, schedule: Q01DX009 (ip), vehicle: saline with Tween-80) 6 of 6; (dose: 3.0 mg/kg/injection, schedule: Q01DX009 (ip), vehicle: saline with Tween-80) 6 of 6; (dose: 6.0 mg/kg/injection, schedule: Q01DX009 (ip), vehicle: saline with Tween-80) 6 of 6; (dose: 12.0 mg/kg/injection, schedule: Q01DX009 (ip), vehicle: saline with Tween-80) 6 of 6.

With `Cc1ccc(S(=O)c2ccc([N+](=O)[O-])c3nonc23)cc1` (stereo not drawn), the survivor count was 5 of 7 (dose: 25.0 mg/kg/injection, schedule: Q01DX009 (ip), vehicle: saline with Tween-80); 2 of 7 under setting [9]; 0 of 7 under setting [1].

Consider `CCc1nc(N)nc(N)c1-c1ccc(Cl)cc1`, for which the survivor count by setting is: (dose: 4.0 mg/kg/injection, schedule: Q01DX009 (oral), vehicle: Klucel (hydroxypropylcellulose) (HPC)) 5 of 10; (dose: 8.0 mg/kg/injection, schedule: Q01DX009 (oral), vehicle: Klucel (hydroxypropylcellulose) (HPC)) 5 of 10; (dose: 32.0 mg/kg/injection, schedule: Q01DX009 (oral), vehicle: Klucel (hydroxypropylcellulose) (HPC)) 8 of 10; (dose: 64.0 mg/kg/injection, schedule: Q01DX009 (oral), vehicle: Klucel (hydroxypropylcellulose) (HPC)) 4 of 10.

Take `CCC[CH2][Sn]1([CH2]CCC)[O]OC(c2ccc(OC)cc2)[O]1` (stereo not drawn): the survivor count is 6 of 6 (dose: 12.5 mg/kg/injection, schedule: Q01DX009 (sc), vehicle: olive oil, sesame oil, peanut oil) and 4 of 6 (dose: 25.0 mg/kg/injection, schedule: Q01DX009 (sc), vehicle: olive oil, sesame oil, peanut oil).

Take `Cc1csc(/N=C/c2ccc([N+](=O)[O-])o2)n1`: the T/C under setting [9] was 140 % of control [5 of 6 alive]. The survivor count is recorded as 4 of 6 under setting [1], 0 of 6 under setting [2], 4 of 6 under setting [4] and 1 of 6 under setting [5].

For `S=c1[nH]c2nc(Cl)c(Cl)nc2[nH]1`, the T/C under setting [9] is 134 % of control. For the same molecule, the survivor count is, setting by setting: under setting [2], 4 of 6 and 5 of 6; under setting [5], 0 of 6.

As to `C[C@H]1CC2=CC(=O)CC[C@]2(C)[C@H]2CC[C@@]3(C)[C@@H](CC[C@]3(C)O)[C@H]12`, under setting [8], the survivor count was 5 of 6.
